Experimental data as given in US20250325717A1, “ANTI-NUCLEOPHOSMIN 1 ANTIBODY AND ANTIBODY CONJUGATE COMBINATION THERAPIES” (The Children's Medical Center Corporation, priority 2022, published 2025).
At least one compound was matched to its structure with a doubt left. Some results were stated once for a whole list of compounds, not compound by compound.

How the values were obtained:
[1] = system: NPM1 on the surface of OCI-AML3 cells; test: Effect of chemotherapeutics on anti-NPM1 antibody binding to OCI-AML3 cell surface; assay type: cell-based, human; conditions: 10 nM daunorubicin or 40 nM venetoclax
[2] = system: Normal hematopoietic precursor cell line HPC7; test: Low dose chemotherapeutics: cell surface NPM1 on non-transformed HPC7 cells; assay type: cell-based; conditions: daunorubicin 10 nM, venetoclax 40 nM, 48 and 72 hours
Description: (§1) The ability of low doses of chemotherapeutic agents, daunorubicin and venetoclax, to induce cell surface NPM1 on non-transformed cells was tested. Normal hematopoietic precursor cell line HPC7 and normal myeloid progenitor line HOXB8 were exposed to either control or a low dose of a chemotherapeutic treatment. Doses of daunorubicin and venetoclax were administered at 10 nanomolar (nM) and 40 nM, respectively. The results of the antibody binding measured by flow cytometry show no change in the low dose chemotherapeutic compared to controls (FIG. 33).

[3] = system: normal myeloid progenitor line HOXB8; test: Low dose chemotherapeutics: cell surface NPM1 on non-transformed HOXB8 cells; assay type: cell-based; conditions: daunorubicin 10 nM, venetoclax 40 nM, 48 and 72 hours
Description: as §1

[4] = system: OCI-AML3 cells; test: Low dose chemotherapeutics: induction of cell surface NPM1 on OCI-AML3 cells; assay type: cell-based, human; conditions: daunorubicin 10 nanomolar (nm), venetoclax 40 nm
Description: To determine whether low doses of chemotherapeutic agents, daunorubicin and venetoclax, induce cell surface NPM1, OCI-AML3 cells were exposed to either control or a low dose of a chemotherapeutic treatment. OCI-AML3 cells are resistant to BLC2i. Daunorubicin was administered at 10 nanomolar (nm) and venetoclax was administered at 40 nm. Administration of daunorubicin increased NPM1 on the cell surface at 48 hrs and maintained higher expression for at least 9 days. Administration of venetoclax and separately 5-Aza increased NPM1 at 48 hrs and maintained higher expression for at least 7 days (FIG. 32).

Compound	binding between the isolated anti-WT NPM1 and anti-mutant NPM1 antibody and NPM1 on the surface of OCI-AML3 cells [1]	binding of anti-NPM1 antibody (Merck/Sigma anti-B23 #B0556) to cells ([1]; 8 days post-treatment)	binding of anti-NPM1 antibody (Merck/Sigma anti-B23 #B0556) to cells ([1]; after 48 hours of treatment)	antibody binding (cell surface NPM1) compared to controls [2]	antibody binding (cell surface NPM1) compared to controls [3]	NPM1 on the cell surface ([4]; 48 hrs)	time for which higher NPM1 expression was maintained [4]
CC1(C)CCC(CN2CCN(c3ccc(C(=O)NS(=O)(=O)c4ccc(NCC5CCOCC5)c([N+](=O)[O-])c4)c(Oc4cnc5[nH]ccc5c4)c3)CC2)=C(c2ccc(Cl)cc2)C1 [venetoclax]	enhanced binding	substantially enhanced	enhanced	no change	no change	increased	at least 7 days
Nc1ncn([C@@H]2O[C@H](CO)[C@@H](O)[C@H]2O)c(=O)n1 [5-azacytidine]							at least 7 days
